Source: patent US20070232691A1, “Use of ladostigil for the treatment of schizophrenia” (priority 2006, published 2007)
At least one compound was matched to its structure with a doubt left.

System: male Wistar rats
Test: MK-801-induced persistent latent inhibition (LI), thirst motivated conditioned emotional response procedure
Assay type: in vivo, rat
Conditions: physostigmine 0.05 mg/kg and […], 30 min before preexposure and conditioning, no MK-801
Excerpt: Latent inhibition (“LI”) is the process whereby pre-exposure to a stimulus retards conditioning to this stimulus when it is subsequently paired with reinforcement, and it has been used extensively to model cognitive impairments in schizophrenia. […] Briefly, amphetamine disrupts LI in rats and normal humans, and this is paralleled by disrupted LI in acute schizophrenia patients. Amphetamine-induced LI disruption is reversed by both typical and atypical APDs.
The rats used were male Wistar rats approximately five months old, weighing 350 g to 500 g.
Rats were tested in Campden Instruments rodent test chambers with a retractable bottle. When the bottle was not present, the hole was covered by a metal lid. Licks were detected by a Campden Instruments drinkometer. […]
LI was measured in a thirst motivated conditioned emotional response (“CER”) procedure by comparing the suppression of drinking to a tone previously paired with a foot shock in rats that received non-reinforced exposure to the tone prior to conditioning (preexposed) and in rats for whom the tone was novel (non-preexposed). […]
Each rat was placed in the chamber and allowed to drink from the bottle. […] The following times were recorded: Time to first lick, time to complete licks 1-50, time to complete licks 51-75 (before tone onset) and time to complete licks 76-100 (after tone onset). […]

CNC(=O)Oc1ccc2c(c1)[C@]1(C)CCN(C)[C@@H]1N2C [Physostigmine, physostigmine, reference compound]
Effect on LI of drug on its own: had no effect
